{"source": "patent US20110217260A1", "about": "“METHOD OF ENHANCING EYELASH AND EYE BROW HAIR GROWTH” (priority 2010, published 2011)", "origin": "cited, not measured here", "test_system": "aromatase", "details": "in fibroblasts; cited from earlier work", "note": "At least one compound was matched to its structure with a doubt left.", "data": [{"compound": "C[C@@H]1C[C@H]2[C@@H]3CCC4=CC(=O)C=C[C@]4(C)[C@@]3(F)[C@@H](O)C[C@]2(C)[C@@]1(O)C(=O)CO", "note": "[Dexamethasone]", "values": [{"measurement": "Stimulation of aromatase", "value": "10-20 fold"}]}]}
